From PubChem BioAssay AID493014 (National Center for Advancing Translational Sciences (NCATS), 2011)
Some of the results follow. Further columns of the screen follow, without active or inactive calls. The list favours compounds with an active or inconclusive main result. Words in brackets tell the shape of the fitted curve; partial curves, single points and poor fits give uncertain potencies.

Assay: qHTS Assay to Find Inhibitors of Chronic Active B-Cell Receptor Signaling
Details: ABC-DLBCL IkBa-CBG/CBR reporter, luminescence ratio (green luciferase fused to IkBa over red control in TMD8 lymphoma cells), 4 h
Summary of the method: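 TMD8 ABC-DLBCL cells carrying doxycycline-inducible green luciferase fused to IkappaBalpha plus unfused red luciferase were exposed to compounds (up to 46 uM) for 4 hrs at 37C. Activity came from the overlap-corrected green/red luminescence ratio.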

[1] = measured here: CBR red luminescence, cell number
[2] = measured here: IkBa-CBG green luminescence

| Compound | AC50 [1] | AC50 [2] |
| --- | --- | --- |
| Nc1c(C(=O)N/N=C/c2cccnc2)oc2nc(-c3ccco3)cc(-c3ccco3)c12 | 2.24 µM [falling, full curve, poor fit] | 3.55 µM [rising, full curve] |
| Cc1nc(/C(N)=N/OC(=O)Cc2ccccc2)no1 | 8.91 µM [rising, partial curve] | – |
| Cc1cc(C(F)F)n2nc(C(=O)Nc3cccc(S(=O)(=O)N4CCOCC4)c3)nc2n1 | 35.5 µM [rising, single point] | – |
| CCC1(C)Cc2nc3sc(C(=O)O)c(N)c3cc2CO1 (centres undefined) | 4.11 µM [falling, full curve, poor fit] | – |
| CC1=NN(c2ccccc2)C(=O)C1(C)C | 10 µM [falling, partial curve, poor fit] | – |
| c1ccc(CN(CC2=NCCN2)c2ccccc2)cc1 | 35.5 µM [falling, single point] | – |
| CCCSc1nc2sc3c(c2c(=O)[nH]1)CC(C)(CC)OC3 (centres undefined) | 35.5 µM [rising, single point] | – |
| Cc1ccc(C)c(NC(=O)C2C3C=CC(O3)C2C(=O)O)c1 (centres undefined) | 10 µM [falling, partial curve] | – |
| O=C(NCc1ccccc1)C(Cc1ccccc1)NS(=O)(=O)c1cccc2nsnc12 (centres undefined) | 2.91 µM [rising, full curve, poor fit] | – |
| O=C(NCC1CCCO1)c1sc(=S)n2c1[nH]c(=O)c1ccc(C(=O)N3CCCCC3)cc12 (centres undefined) | 35.5 µM [rising, single point] | – |
| CN(C)c1nc(Cl)nc(N(C#N)CCOc2ccccc2)n1 | 15.8 µM [falling, single point] | – |
| CCn1c2ccccc2c2cc(/C=N/NC(=O)c3cc(O)cc(O)c3)ccc21 | 12.6 µM [falling, partial curve, poor fit] | 35.5 µM [rising, partial curve, poor fit] |
| O=C(O)CSC(C(=O)Nc1ccc(Br)cc1)c1ccccc1 (centres undefined) | 11.2 µM [rising, partial curve] | – |
| O=C(CCCn1c(=S)[nH]c2ccccc2c1=O)N1CCN(c2cccc(Cl)c2)CC1 | 0.447 µM [falling, full curve, poor fit] | – |
| CC(=O)Nc1ccc(NC(=O)CCSCCc2ccccn2)cc1 | 35.5 µM [rising, single point] | – |
| COC(=O)c1ccc(COc2ccccc2/C=C(\C#N)C(=O)NC(C)C)cc1 | 2.31 µM [falling, full curve, poor fit] | – |
| O=C(O)c1ccc(-c2ccc(-c3ccccc3)cc2)s1 | 0.447 µM [falling, full curve] | – |

Nothing new here: entries from further up.

| Compound | AC50 [1] | AC50 [2] |
| --- | --- | --- |
| O=C(O)CSC(C(=O)Nc1ccc(Br)cc1)c1ccccc1 (centres undefined) | 11.2 µM [rising, partial curve] | – |
| O=C(CCCn1c(=S)[nH]c2ccccc2c1=O)N1CCN(c2cccc(Cl)c2)CC1 | 0.447 µM [falling, full curve, poor fit] | – |
